Binding signal data for 42 sequences are collected here from article PMC7819943, “Rice protein-binding microarrays: a tool to detect cis-acting elements near promoter regions in rice”.

This is one part of the list.

This assay addresses T1, OsSMF1 (Oryza sativa, UniProt Q6ZLB0 1-436).
T1 sequence: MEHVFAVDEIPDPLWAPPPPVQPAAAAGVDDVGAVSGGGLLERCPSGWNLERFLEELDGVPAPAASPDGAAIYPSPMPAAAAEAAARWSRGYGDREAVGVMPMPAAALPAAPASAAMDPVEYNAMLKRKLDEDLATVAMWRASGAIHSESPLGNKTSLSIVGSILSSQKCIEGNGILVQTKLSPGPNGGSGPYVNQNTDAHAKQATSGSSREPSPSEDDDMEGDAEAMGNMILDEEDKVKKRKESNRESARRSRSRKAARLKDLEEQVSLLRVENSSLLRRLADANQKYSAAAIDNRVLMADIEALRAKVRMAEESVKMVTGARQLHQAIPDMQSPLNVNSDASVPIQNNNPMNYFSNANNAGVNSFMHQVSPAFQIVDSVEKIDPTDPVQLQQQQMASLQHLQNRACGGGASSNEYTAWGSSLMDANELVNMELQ
The assay can be described thus: protein-binding microarray (RPBM); PBS, 2% BSA, 51.3 ng/ul salmon testes DNA, 50 uM zinc acetate, 200 nM TF, 25 C, 1 h; high values mean tight binding. The note with it: protein: recombinant; tags: N-terminal polyhistidine and DsRed monomer fusion (pET32a); chain copies: 2; label: CyDye5-dUTP incorporated in the synthesized complementary strand; 3' TTTTT single-stranded linker to array surface; dsDNA, one strand shown. Put shortly: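 Binding signal is reported as fluorescence intensity per feature (arbitrary units) from an Axon 4000B scanner. Incubation used 200 nM of each Ni–NTA-purified, N-terminally polyhistidine- and DsRed-fused transcription factor from E. coli BL21-CodonPlus on a double-stranded custom Agilent array for 1 h at 25 °C, with 50 µM zinc acetate in the buffer, followed by washing.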
For “AAAGTGAAATGACGCTGATACTAAGTACTAGTGGTGCTATCGGAGTCACCTAGTGCAG”, the binding signal was 3800 fluorescence intensity (a.u.).

For the sequence “GGAGAGGCCCACTGTTTCTTCCACTTCTCGCCTTGCTCGCCGGAGTCACCTAGTGCAG”, the binding signal is 23900 fluorescence intensity (a.u.).

With “GGTGGAGAGGAATAGCGCCGTATACCTGTGTCTCGTCGTGCGGAGTCACCTAGTGCAG”, the binding signal was 3320 fluorescence intensity (a.u.).

Regarding “ATTATTAAATCACGAGTCACACCACTCTCTTTATGTTAGGCGGAGTCACCTAGTGCAG”, the binding signal was 3500 fluorescence intensity (a.u.).

Take “CATGGACCCGGCCGCCAACGTACGCGACTCACAAGACGCACGGAGTCACCTAGTGCAG”: the binding signal is 3260 fluorescence intensity (a.u.).

With “TCACCGCGCCGCCAGCGCTCCTCGGCCACCTCATTGGCAACGGAGTCACCTAGTGCAG”, the binding signal was 3660 fluorescence intensity (a.u.).

For the sequence “TCCGTAATTTTGAATCCCTTGTATTGGTGGATAAATCAGACGGAGTCACCTAGTGCAG”, the binding signal is 30000 fluorescence intensity (a.u.).

In the case of “TTCCTCGCGCTCCCACGCCACGCAGCAGCCGCAGATCTCCCGGAGTCACCTAGTGCAG”, the binding signal was 3630 fluorescence intensity (a.u.).

With “ATGAACAGTATCCAGTGGGGCGTCCACCTGACCGATTCAACGGAGTCACCTAGTGCAG”, the binding signal was 4730 fluorescence intensity (a.u.).

Take “TGGGCCAAGTCAACTGGTGCACGGTGGCAGCACGCAGCTGCGGAGTCACCTAGTGCAG”: the binding signal was 3350 fluorescence intensity (a.u.).

Consider “ATAGATTTGATCATCAGTTGACACGTGCTATATACTCCCTCGGAGTCACCTAGTGCAG”, for which the binding signal was 9750 fluorescence intensity (a.u.).

Consider “AGAATTGATCCGAATGTGGTTCAACTCACTACGCTCCAAACGGAGTCACCTAGTGCAG”, for which the binding signal is 19800 fluorescence intensity (a.u.).

“CCGGTATGTATAGTTTATGGTGTAAAATATCCGTTATTTGCGGAGTCACCTAGTGCAG”: the binding signal was 4270 fluorescence intensity (a.u.).

Regarding “ATCCATTGCTGCTTTCAGCTGAGTCACCAACTCCTATCCACGGAGTCACCTAGTGCAG”, the binding signal is 14100 fluorescence intensity (a.u.).

“CGGTCAGGGCGGGCGGCGTCGCCGGCGACGTGGCTGCTCGCGGAGTCACCTAGTGCAG”: the binding signal is 3580 fluorescence intensity (a.u.).

Regarding “TCGAATCCCTCTGCGTGGACACGTAGCGGGGAGAGGAAAACGGAGTCACCTAGTGCAG”, the binding signal is 4390 fluorescence intensity (a.u.).

On to “CAATTTGGCATTTACCACGATAACCACGTGGTTATTGTAGCGGAGTCACCTAGTGCAG”, for which the binding signal was 6390 fluorescence intensity (a.u.).

Regarding “AACGGCCGTCTGCCACGTCATTTTCGCCGCCCTCTGGGATCGGAGTCACCTAGTGCAG”, the binding signal was 27400 fluorescence intensity (a.u.).

As to “GTGTGCATGATATCATCGTCTTCTACTCCGGATCAGTAAACGGAGTCACCTAGTGCAG”, the binding signal was 4030 fluorescence intensity (a.u.).

Take “TATAGTACTGTAAGTTTAGTAATTACACATGTAAGTTTAGCGGAGTCACCTAGTGCAG”: the binding signal was 31400 fluorescence intensity (a.u.).

Take “CCCTCACCGCTCACTGGCTCTCGTCTCTCGCCGCCGCCGCCGGAGTCACCTAGTGCAG”: the binding signal is 30200 fluorescence intensity (a.u.).

Turning to “GAGAGTTGCTAGGAAACTTTTGCAGGTTGATTATGTGTCACGGAGTCACCTAGTGCAG”, the binding signal is 3800 fluorescence intensity (a.u.).

As to “CTTCCTTTCGTCATGCGTACAAGCCATCCCCACATCACCACGGAGTCACCTAGTGCAG”, the binding signal was 5710 fluorescence intensity (a.u.).

Turning to “CCTCGCTGATCGATCTCACTCCACGTCGTAGCTGTGAGCTCGGAGTCACCTAGTGCAG”, the binding signal was 4680 fluorescence intensity (a.u.).

Turning to “TCCAAGATACCGGATTCGTGATCCCTACAAGCTTCTTGGTCGGAGTCACCTAGTGCAG”, the binding signal was 4300 fluorescence intensity (a.u.).

“AACTTCATCTTGCATTCATATTTTGTCAGCCTTATCTAACCGGAGTCACCTAGTGCAG”: the binding signal was 3140 fluorescence intensity (a.u.).

Consider “GCGCCGAGCGGCCGCCTTGCTTCAGATCGCAACGATTTCTCGGAGTCACCTAGTGCAG”, for which the binding signal was 12400 fluorescence intensity (a.u.).

As for “GCACAGCCAGCAACCGCGTGGCCGTCGCGAGCCGCTGCCACGGAGTCACCTAGTGCAG”, the binding signal is 3400 fluorescence intensity (a.u.).

In the case of “TCATAATATTATAAATTTGGACAAAGATATATCATATCACCGGAGTCACCTAGTGCAG”, the binding signal is 3150 fluorescence intensity (a.u.).

On to “AAACTTGGTAACGTGAGCTAACCGTAACTGTAGTCATTGCCGGAGTCACCTAGTGCAG”, for which the binding signal was 4240 fluorescence intensity (a.u.).

For “TACCAGCACTGTTTCCTGATACTGGTATCGATTAACAGGTCGGAGTCACCTAGTGCAG”, the binding signal was 10100 fluorescence intensity (a.u.).

On to “ACCGAAGGCGTCGCCCATGGCCTCGCCGTACGAGGTGGCGCGGAGTCACCTAGTGCAG”, for which the binding signal is 3850 fluorescence intensity (a.u.).

On to “GCCCAACCGGAGAGAGCACTAGTTGGCCGGCCATGTCATGCGGAGTCACCTAGTGCAG”, for which the binding signal was 5280 fluorescence intensity (a.u.).

With “ATGAGCCCACCACAACAATACCGCCACTCCACGTACACAACGGAGTCACCTAGTGCAG”, the binding signal was 4370 fluorescence intensity (a.u.).

With “CTCACCCCGCACTTCTCCCACCGCCACCGAGGCACGGCTCCGGAGTCACCTAGTGCAG”, the binding signal is 4360 fluorescence intensity (a.u.).

For “CCCTTGTTACATGTCATGCCCTGTGCTGTCTCCCAATCCCCGGAGTCACCTAGTGCAG”, the binding signal was 4780 fluorescence intensity (a.u.).

For the sequence “GTTGGGGAATGCGTTGTATCCGGTTTTGCAGCCTAGGGATCGGAGTCACCTAGTGCAG”, the binding signal was 3380 fluorescence intensity (a.u.).

Turning to “CTCTTATCTCTCGATTGATCCACGAACAGTGACACCGCCGCGGAGTCACCTAGTGCAG”, the binding signal is 3230 fluorescence intensity (a.u.).

For the sequence “CCCTTACACCGCCCTGTGAACAGTCACTGACAATCCTGGCCGGAGTCACCTAGTGCAG”, the binding signal is 4330 fluorescence intensity (a.u.).

For the sequence “TGAGACGGCCGTGCGTGCGTCGGCGGGTCGCCCCGTCTCCCGGAGTCACCTAGTGCAG”, the binding signal is 6430 fluorescence intensity (a.u.).

With “TCATAACTAATATTTAAATGGTATTTGAACATCCCATGGACGGAGTCACCTAGTGCAG”, the binding signal is 24500 fluorescence intensity (a.u.).

“AGATAGATAGAGAGAGAGAAGGGAAAGGGAAGAGAGAGAGCGGAGTCACCTAGTGCAG”: the binding signal was 17800 fluorescence intensity (a.u.).
